Measured values from patent publication US20060115837A1 (WASHINGTON UNIVERSITY, published 2006).
Results are given in words; binding and its absence hold for the method and conditions named. Some binding calls cover weakened binding; strength is not graded here.

Protein sequences, listed by entry. Tags and fused reporters are not part of them. Lines headed by an entry give the natural chain unless they say otherwise; changes in a name come on top.
UniProt Q9Q6P4: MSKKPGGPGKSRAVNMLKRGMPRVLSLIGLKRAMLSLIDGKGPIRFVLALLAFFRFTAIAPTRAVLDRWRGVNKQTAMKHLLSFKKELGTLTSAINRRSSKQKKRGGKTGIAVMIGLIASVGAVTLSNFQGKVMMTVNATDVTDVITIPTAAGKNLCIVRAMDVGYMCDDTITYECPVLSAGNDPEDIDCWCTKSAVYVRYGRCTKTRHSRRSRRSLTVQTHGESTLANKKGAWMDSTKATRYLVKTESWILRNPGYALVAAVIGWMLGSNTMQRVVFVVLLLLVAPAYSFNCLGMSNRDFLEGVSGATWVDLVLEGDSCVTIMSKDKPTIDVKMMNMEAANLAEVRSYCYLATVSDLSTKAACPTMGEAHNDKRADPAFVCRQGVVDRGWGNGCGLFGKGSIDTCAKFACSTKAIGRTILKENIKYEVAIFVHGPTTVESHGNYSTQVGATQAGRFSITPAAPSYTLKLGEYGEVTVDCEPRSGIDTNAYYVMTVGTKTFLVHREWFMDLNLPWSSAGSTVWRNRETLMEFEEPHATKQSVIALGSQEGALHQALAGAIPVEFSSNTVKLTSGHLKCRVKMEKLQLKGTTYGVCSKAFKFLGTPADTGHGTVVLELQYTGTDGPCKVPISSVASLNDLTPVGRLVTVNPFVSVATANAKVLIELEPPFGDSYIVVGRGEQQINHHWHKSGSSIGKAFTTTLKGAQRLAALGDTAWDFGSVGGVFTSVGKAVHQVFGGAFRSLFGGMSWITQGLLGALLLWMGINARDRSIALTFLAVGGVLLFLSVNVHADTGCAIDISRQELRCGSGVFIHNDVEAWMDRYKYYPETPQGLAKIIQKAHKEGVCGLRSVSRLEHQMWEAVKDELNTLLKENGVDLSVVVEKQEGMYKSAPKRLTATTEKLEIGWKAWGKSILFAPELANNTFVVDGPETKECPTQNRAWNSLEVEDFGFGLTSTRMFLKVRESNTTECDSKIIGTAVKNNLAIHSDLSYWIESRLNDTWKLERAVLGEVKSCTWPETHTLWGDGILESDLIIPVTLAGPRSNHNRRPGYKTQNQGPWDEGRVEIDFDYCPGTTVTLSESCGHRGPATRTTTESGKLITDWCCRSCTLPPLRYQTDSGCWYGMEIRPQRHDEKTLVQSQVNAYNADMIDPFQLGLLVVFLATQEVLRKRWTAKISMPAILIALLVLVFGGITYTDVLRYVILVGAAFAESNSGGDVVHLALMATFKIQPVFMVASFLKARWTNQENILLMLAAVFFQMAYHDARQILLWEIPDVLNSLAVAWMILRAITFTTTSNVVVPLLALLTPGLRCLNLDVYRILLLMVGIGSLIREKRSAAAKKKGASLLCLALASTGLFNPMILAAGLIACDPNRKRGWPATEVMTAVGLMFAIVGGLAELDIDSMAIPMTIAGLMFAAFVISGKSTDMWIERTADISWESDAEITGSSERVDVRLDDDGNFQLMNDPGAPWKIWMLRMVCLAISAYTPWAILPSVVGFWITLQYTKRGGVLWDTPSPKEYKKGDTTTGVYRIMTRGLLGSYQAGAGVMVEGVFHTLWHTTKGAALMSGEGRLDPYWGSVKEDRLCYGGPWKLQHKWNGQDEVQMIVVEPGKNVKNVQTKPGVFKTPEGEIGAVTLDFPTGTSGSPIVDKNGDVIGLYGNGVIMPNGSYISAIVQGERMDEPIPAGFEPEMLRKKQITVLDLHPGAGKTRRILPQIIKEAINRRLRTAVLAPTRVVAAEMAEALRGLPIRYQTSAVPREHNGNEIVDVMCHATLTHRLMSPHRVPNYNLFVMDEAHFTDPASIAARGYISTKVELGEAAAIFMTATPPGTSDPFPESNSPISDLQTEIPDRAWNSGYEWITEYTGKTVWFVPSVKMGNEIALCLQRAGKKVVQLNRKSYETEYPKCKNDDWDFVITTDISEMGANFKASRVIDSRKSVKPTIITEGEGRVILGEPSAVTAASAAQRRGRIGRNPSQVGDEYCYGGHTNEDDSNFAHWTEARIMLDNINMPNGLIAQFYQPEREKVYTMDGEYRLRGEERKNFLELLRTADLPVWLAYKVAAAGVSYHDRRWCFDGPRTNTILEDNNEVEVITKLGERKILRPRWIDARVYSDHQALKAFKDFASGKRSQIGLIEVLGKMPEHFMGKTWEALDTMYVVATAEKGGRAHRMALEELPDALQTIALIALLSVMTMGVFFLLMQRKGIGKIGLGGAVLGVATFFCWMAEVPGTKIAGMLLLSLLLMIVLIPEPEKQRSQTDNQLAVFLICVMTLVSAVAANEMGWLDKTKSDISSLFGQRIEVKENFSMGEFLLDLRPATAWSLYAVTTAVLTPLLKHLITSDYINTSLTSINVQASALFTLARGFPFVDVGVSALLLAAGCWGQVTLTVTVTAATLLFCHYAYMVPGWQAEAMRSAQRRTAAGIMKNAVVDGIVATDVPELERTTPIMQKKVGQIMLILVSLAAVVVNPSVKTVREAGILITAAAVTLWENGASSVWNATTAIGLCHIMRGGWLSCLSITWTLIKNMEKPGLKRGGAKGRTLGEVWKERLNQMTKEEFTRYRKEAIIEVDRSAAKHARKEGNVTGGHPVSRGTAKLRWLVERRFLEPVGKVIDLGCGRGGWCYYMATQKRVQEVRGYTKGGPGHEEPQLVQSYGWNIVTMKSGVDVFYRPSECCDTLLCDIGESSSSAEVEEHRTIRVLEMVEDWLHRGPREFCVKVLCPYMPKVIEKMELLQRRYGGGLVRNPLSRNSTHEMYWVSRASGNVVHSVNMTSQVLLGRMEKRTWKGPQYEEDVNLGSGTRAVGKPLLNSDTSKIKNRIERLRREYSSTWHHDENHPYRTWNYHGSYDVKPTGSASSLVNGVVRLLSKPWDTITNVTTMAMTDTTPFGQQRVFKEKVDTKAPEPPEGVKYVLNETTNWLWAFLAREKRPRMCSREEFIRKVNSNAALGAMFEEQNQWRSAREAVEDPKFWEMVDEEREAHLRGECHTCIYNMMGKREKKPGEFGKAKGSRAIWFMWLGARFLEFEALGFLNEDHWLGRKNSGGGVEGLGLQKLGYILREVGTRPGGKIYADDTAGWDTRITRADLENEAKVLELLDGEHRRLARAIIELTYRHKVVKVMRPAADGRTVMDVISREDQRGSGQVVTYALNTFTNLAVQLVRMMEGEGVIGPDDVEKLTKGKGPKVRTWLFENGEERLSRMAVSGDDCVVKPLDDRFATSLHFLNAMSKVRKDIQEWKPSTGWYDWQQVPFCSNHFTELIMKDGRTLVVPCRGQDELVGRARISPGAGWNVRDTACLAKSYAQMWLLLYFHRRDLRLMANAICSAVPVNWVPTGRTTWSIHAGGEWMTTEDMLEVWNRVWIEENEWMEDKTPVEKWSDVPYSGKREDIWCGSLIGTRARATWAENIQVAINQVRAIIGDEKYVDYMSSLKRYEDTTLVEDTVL

Tests used:
[1] = target: domain III of West Nile Virus envelope protein (recombinant, refolded) (West Nile Virus (NY1999 strain)) (UniProt Q9Q6P4); experiment: co-crystal structure
[2] = target: domain III of West Nile Virus envelope protein (recombinant, refolded) (West Nile Virus (NY1999 strain)) (UniProt Q9Q6P4); experiment: complex formation in solution, isolated by gel filtration
[3] = target: domain III of West Nile Virus envelope protein (recombinant, refolded) (West Nile Virus (NY1999 strain)) (UniProt Q9Q6P4); experiment: competition with WNV convalescent antibodies for DIII binding; method and form of DIII not described
[4] = target: domain III of West Nile Virus envelope protein (recombinant, refolded) (West Nile Virus (NY1999 strain)) (UniProt Q9Q6P4); experiment: X-ray crystal structure of the complex, 2.5 Å
[5] = target: WNV E ectodomain (residues 1-415) expressed on yeast (West Nile Virus) (UniProt Q9Q6P4); experiment: competition for WNV E binding on yeast, flow cytometry
[6] = target: WNV E (residues 296-415) displayed on the surface of yeast as Aga2 fusion protein (West Nile Virus) (UniProt Q9Q6P4); experiment: flow cytometry on yeast displaying WNV DIII

Measured: binding

B1: Fab fragment of monoclonal antibody E16 (Fab, V domains shown)
VH: QVQLQQSGSELMKPGASVQISCKATGYTFSDYWIEWVKQRPGHGLEWIGILCGTGRTRYNEKLKAMATFTADTSSNTAFMQLSSLTSEDSAVYYCARSASYGDYADYWGHGTTLTVSS
VL: DIVMTQSHKFMSTSVGDRVSITCKASQDVSTAVAWYQQKPGQSPKLLISWASTRHTGVPDRFTGSGSGTDYTLTISSVQAEDLALYYCQQHYTTPLTFGAGTKLELK
binds: [1] | [2] | [3] | [4]

B2: monoclonal antibody E16 (antibody, V domains shown)
VH: QVQLQQSGSELMKPGASVQISCKATGYTFSDYWIEWVKQRPGHGLEWIGILCGTGRTRYNEKLKAMATFTADTSSNTAFMQLSSLTSEDSAVYYCARSASYGDYADYWGHGTTLTVSS
VL: DIVMTQSHKFMSTSVGDRVSITCKASQDVSTAVAWYQQKPGQSPKLLISWASTRHTGVPDRFTGSGSGTDYTLTISSVQAEDLALYYCQQHYTTPLTFGAGTKLELK
binds: [5] | [6]
